The list shows a part of the results.
Tests used:
Assay in all cases: log2 fold change, soluble protein after heating vs DMSO (PISA); higher = thermal stabilisation; K562 lysate, 10 uM; active = over 0.2 and 3.5 SD of the protein, either way, in both replicates (recomputed)
lapatinib = compound: CS(=O)(=O)CCNCc1ccc(-c2ccc3ncnc(Nc4ccc(OCc5cccc(F)c5)c(Cl)c4)c3c2)o1 [lapatinib]
Outline: (§1)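 Quantification was by TMTpro 16plex LC-MS/MS with equalised channel sums, applied to the supernatant after 21,000xg for 90 min. Samples were crude K562 extract at 1 mg/mL protein in PBS pH 7.4 with 1 mM MgCl2, treated with 10 μM compound for 30 min, heated for 3 min across 48°C-58°C, pooled and brought to 0.5% NP-40 at 4°C. Values are log-two fold changes in thermal stability relative to solvent controls, from duplicates.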

By UniProt entry, the sequences of proteins in these tests, tags left out. Where a name states a change or a piece, a line headed by the entry shows the natural chain unless it says otherwise.
UniProt P35711: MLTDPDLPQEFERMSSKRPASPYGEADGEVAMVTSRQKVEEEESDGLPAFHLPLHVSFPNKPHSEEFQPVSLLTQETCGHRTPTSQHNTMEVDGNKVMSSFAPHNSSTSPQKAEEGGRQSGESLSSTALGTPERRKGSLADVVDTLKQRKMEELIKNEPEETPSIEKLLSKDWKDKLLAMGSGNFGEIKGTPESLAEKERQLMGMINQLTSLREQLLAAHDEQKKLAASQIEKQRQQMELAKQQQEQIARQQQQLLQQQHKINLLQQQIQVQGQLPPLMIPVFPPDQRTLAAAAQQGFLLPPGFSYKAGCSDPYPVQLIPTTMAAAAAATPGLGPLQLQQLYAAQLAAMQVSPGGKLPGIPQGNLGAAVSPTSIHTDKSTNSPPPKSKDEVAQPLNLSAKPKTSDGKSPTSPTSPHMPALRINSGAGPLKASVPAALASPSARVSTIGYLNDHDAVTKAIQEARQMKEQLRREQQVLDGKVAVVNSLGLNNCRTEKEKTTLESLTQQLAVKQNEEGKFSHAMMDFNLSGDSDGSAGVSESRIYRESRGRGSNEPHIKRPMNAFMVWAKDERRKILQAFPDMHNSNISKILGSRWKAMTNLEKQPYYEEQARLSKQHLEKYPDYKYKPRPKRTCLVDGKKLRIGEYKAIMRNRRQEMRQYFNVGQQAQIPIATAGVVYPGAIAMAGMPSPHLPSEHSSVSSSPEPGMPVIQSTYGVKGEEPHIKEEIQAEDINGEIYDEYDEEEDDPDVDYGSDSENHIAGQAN
UniProt Q9NRG4: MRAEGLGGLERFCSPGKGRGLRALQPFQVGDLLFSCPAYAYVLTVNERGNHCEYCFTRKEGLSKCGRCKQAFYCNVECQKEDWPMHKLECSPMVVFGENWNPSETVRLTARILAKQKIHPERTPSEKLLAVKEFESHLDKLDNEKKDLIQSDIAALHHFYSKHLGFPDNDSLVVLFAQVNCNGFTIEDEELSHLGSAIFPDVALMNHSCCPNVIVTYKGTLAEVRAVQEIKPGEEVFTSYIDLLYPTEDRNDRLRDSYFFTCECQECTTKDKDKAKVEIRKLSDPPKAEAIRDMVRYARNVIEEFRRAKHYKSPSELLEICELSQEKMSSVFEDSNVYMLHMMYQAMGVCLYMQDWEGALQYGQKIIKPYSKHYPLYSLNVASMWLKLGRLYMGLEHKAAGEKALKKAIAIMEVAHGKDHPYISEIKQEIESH
UniProt P62318, whole entry, looked up: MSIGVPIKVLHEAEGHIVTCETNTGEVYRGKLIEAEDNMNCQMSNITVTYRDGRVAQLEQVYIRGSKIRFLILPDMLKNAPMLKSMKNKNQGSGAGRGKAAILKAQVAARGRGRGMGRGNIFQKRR
UniProt P00441, whole entry, looked up: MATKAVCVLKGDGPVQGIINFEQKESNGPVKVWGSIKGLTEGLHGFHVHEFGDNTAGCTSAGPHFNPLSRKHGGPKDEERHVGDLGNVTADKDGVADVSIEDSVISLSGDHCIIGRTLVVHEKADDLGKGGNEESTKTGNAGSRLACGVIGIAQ
UniProt P62304, whole entry, looked up: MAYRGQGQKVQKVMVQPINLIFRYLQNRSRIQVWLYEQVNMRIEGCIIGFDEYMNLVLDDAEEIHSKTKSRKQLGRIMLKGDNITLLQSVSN
UniProt Q9UPR3: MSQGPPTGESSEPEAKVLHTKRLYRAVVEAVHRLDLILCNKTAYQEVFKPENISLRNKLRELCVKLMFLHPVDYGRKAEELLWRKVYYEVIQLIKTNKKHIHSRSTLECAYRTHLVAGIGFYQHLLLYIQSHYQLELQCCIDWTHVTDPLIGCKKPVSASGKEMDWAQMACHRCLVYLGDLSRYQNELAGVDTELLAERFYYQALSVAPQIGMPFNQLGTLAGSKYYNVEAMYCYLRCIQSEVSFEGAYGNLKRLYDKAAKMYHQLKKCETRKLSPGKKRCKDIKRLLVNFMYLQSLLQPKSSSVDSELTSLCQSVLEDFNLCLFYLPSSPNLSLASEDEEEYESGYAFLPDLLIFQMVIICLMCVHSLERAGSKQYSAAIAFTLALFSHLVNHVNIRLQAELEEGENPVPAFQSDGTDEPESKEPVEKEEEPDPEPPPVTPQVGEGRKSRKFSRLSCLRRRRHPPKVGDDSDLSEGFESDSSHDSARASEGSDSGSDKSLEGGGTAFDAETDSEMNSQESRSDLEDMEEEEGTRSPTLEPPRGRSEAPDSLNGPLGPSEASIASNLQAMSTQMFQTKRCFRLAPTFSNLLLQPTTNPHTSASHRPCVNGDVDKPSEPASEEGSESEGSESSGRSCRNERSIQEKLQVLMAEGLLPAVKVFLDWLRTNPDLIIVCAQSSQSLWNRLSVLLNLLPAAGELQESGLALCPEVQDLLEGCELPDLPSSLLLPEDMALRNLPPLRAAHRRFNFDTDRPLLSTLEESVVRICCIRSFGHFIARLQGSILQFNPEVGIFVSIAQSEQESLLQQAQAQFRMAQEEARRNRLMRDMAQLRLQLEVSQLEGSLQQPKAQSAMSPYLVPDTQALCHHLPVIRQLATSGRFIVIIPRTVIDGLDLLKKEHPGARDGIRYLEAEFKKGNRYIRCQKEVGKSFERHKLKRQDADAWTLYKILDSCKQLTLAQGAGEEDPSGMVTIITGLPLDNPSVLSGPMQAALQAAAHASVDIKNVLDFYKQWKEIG
UniProt Q9Y5X3: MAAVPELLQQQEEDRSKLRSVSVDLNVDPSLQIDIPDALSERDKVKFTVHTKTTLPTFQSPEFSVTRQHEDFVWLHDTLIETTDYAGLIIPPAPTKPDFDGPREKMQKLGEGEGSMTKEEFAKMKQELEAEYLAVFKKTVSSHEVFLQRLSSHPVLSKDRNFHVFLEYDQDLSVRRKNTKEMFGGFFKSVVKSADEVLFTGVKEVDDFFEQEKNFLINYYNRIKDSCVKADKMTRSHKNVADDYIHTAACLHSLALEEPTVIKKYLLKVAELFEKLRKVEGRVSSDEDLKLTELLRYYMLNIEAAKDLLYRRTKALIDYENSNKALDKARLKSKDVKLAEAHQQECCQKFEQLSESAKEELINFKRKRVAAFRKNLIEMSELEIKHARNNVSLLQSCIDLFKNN
UniProt Q02446, whole entry, looked up: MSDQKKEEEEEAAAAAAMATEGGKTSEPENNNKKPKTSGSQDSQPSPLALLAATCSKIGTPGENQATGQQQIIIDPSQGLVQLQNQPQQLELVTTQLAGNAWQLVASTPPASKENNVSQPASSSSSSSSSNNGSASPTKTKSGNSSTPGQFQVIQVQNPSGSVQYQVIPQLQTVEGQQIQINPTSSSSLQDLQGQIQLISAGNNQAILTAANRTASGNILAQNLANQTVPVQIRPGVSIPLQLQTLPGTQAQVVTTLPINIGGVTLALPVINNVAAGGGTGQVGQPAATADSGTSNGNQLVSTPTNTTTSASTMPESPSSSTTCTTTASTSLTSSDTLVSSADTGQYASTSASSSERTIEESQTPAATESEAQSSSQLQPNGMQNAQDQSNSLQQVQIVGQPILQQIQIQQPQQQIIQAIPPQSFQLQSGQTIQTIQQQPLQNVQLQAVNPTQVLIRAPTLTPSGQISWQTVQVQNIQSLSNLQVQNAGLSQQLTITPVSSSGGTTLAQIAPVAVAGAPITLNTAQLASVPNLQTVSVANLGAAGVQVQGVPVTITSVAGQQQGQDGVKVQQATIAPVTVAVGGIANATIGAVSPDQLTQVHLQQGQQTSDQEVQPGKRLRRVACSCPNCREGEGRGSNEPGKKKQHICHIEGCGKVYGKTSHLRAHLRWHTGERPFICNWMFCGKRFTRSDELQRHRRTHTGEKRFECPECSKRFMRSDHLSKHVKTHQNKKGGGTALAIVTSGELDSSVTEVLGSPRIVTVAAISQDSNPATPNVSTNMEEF

pictilisib = compound: CS(=O)(=O)N1CCN(Cc2cc3nc(-c4cccc5[nH]ncc45)nc(N4CCOCC4)c3s2)CC1 [pictilisib]
Outline: as §1

crizotinib = compound: C[C@@H](Oc1cc(-c2cnn(C3CCNCC3)c2)cnc1N)c1c(Cl)ccc(F)c1Cl [crizotinib]
Outline: as §1

[1] = compound: C[C@H](C1=CC=C(C=C1)C(=O)NC2=C3C=CNC3=NC=C2)N
Outline: as §1

duvelisib = compound: C[C@H](Nc1ncnc2nc[nH]c12)c1cc2cccc(Cl)c2c(=O)n1-c1ccccc1 [duvelisib]
Outline: as §1

gandotinib = compound: Cc1cc(Nc2cc(CN3CCOCC3)c3nc(C)c(Cc4ccc(Cl)cc4F)n3n2)n[nH]1 [gandotinib]
Outline: as §1

tozasertib = compound: Cc1cc(Nc2cc(N3CCN(C)CC3)nc(Sc3ccc(NC(=O)C4CC4)cc3)n2)n[nH]1 [tozasertib]
Outline: as §1

doramapimod = compound: Cc1ccc(-n2nc(C(C)(C)C)cc2NC(=O)Nc2ccc(OCCN3CCOCC3)c3ccccc23)cc1 [doramapimod]
Outline: as §1

bafetinib = compound: Cc1ccc(NC(=O)c2ccc(CN3CC[C@H](N(C)C)C3)c(C(F)(F)F)c2)cc1Nc1nccc(-c2cncnc2)n1 [bafetinib]
Outline: as §1

[2] = compound: Cc1cccc(CC(=O)N2CCc3c2ccc(-c2cn(C)c4ncnc(N)c24)c3F)n1
Outline: as §1

dasatinib = compound: Cc1nc(Nc2ncc(C(=O)Nc3c(C)cccc3Cl)s2)cc(N2CCN(CCO)CC2)n1 [dasatinib]
Outline: as §1

[3] = compound: Cn1cc(-c2ccc3c(c2)CCN3C(=O)Cc2cccc(C(F)(F)F)c2)c2c(N)ncnc21
Outline: as §1

quisinostat = compound: Cn1cc(CNCC2CCN(c3ncc(C(=O)NO)cn3)CC2)c2ccccc21 [quisinostat]
Outline: as §1

[4] = compound: NC(=O)Nc1cc(-c2cccc(F)c2)sc1C(=O)N[C@H]1CCCNC1
Outline: as §1

[5] = compound: NC(=O)c1cnc(N[C@@H]2CCCC[C@@H]2N)nc1Nc1cccc(-n2nccn2)c1
Outline: as §1

[6] = compound: NC1(c2ccc(-c3nc4ccn5c(=O)[nH]nc5c4cc3-c3ccccc3)cc2)CCC1
Outline: as §1

nilotinib = compound: Cc1cn(-c2cc(NC(=O)c3ccc(C)c(Nc4nccc(-c5cccnc5)n4)c3)cc(C(F)(F)F)c2)cn1 [nilotinib]
Outline: as §1

[7] = compound: Cc1nc(Nc2n[nH]c3c2CN(C(=O)N[C@H](CN(C)C)c2ccccc2)C3(C)C)c2sccc2n1
Outline: as §1

[8] = compound: Cc1ncc(-c2ccnc(Nc3ccc(S(C)(=O)=O)cc3)n2)n1C(C)C
Outline: as §1

tipifarnib = compound: Cn1cncc1[C@@](N)(c1ccc(Cl)cc1)c1ccc2c(c1)c(-c1cccc(Cl)c1)cc(=O)n2C [tipifarnib]
Outline: as §1

SOX5 (UniProt P35711)
log2 fold change (lapatinib): inactive: 0.137 | log2 fold change (pictilisib): inactive: -0.019 | log2 fold change (crizotinib): inactive: 0.006 | log2 fold change [1]: inactive: 0.007 | log2 fold change (duvelisib): inactive: -0.073 | log2 fold change (gandotinib): inactive: 0.06 | log2 fold change (tozasertib): inactive: -0.017 | log2 fold change (doramapimod): inactive: 0.026 | log2 fold change (bafetinib): inactive: -0.235 | log2 fold change [2]: inactive: 0.007 | log2 fold change (dasatinib): inactive: -0.035 | log2 fold change [3]: inactive: -0.095 | log2 fold change (quisinostat): inactive: 0.027 | log2 fold change [4]: inactive: -0.03 | log2 fold change [5]: inactive: -0.186 | log2 fold change [6]: inactive: -0.004

SMYD2 (UniProt Q9NRG4)
log2 fold change (lapatinib): inactive: -0.03 | log2 fold change (pictilisib): inactive: 0.009 | log2 fold change (crizotinib): inactive: -0.005 | log2 fold change [1]: inactive: 0.046 | log2 fold change (duvelisib): inactive: 0.011 | log2 fold change (gandotinib): inactive: 0 | log2 fold change (tozasertib): inactive: 0.012 | log2 fold change (doramapimod): inactive: 0.02 | log2 fold change (bafetinib): inactive: 0.008 | log2 fold change [2]: inactive: -0.038 | log2 fold change (nilotinib): inactive: 0.053 | log2 fold change [7]: inactive: 0.013 | log2 fold change (dasatinib): inactive: -0.051 | log2 fold change [8]: inactive: 0.027 | log2 fold change [3]: inactive: -0.064 | log2 fold change (quisinostat): inactive: 0.055 | log2 fold change (tipifarnib): inactive: 0.045 | log2 fold change [4]: inactive: 0.009 | log2 fold change [5]: inactive: 0.06 | log2 fold change [6]: inactive: 0.063

SNRPD3 (UniProt P62318)
log2 fold change (lapatinib): inactive: -0.027 | log2 fold change (pictilisib): inactive: -0.06 | log2 fold change (crizotinib): inactive: 0.008 | log2 fold change [1]: active: -0.233 | log2 fold change (duvelisib): inactive: 0.052 | log2 fold change (gandotinib): inactive: 0.102 | log2 fold change (tozasertib): inactive: 0.028 | log2 fold change (doramapimod): inactive: 0.014 | log2 fold change (bafetinib): inactive: 0.069 | log2 fold change [2]: inactive: 0.11 | log2 fold change (nilotinib): inactive: 0.028 | log2 fold change [7]: inactive: -0.006 | log2 fold change (dasatinib): inactive: 0.016 | log2 fold change [8]: inactive: -0.034 | log2 fold change [3]: inactive: 0.009 | log2 fold change (quisinostat): inactive: -0.002 | log2 fold change (tipifarnib): inactive: -0.002 | log2 fold change [4]: inactive: 0.029 | log2 fold change [5]: inactive: 0.004 | log2 fold change [6]: inactive: 0.001

SOD1 (UniProt P00441)
log2 fold change (lapatinib): inactive: 0.012 | log2 fold change (pictilisib): inactive: -0.05 | log2 fold change (crizotinib): inactive: 0.242 | log2 fold change [1]: inactive: 0.148 | log2 fold change (duvelisib): inactive: -0.027 | log2 fold change (gandotinib): inactive: 0 | log2 fold change (tozasertib): inactive: -0.028 | log2 fold change (doramapimod): inactive: -0.094 | log2 fold change (bafetinib): inactive: -0.025 | log2 fold change [2]: inactive: -0.127 | log2 fold change (nilotinib): inactive: -0.059 | log2 fold change [7]: inactive: -0.008 | log2 fold change (dasatinib): inactive: 0.082 | log2 fold change [8]: inactive: -0.264 | log2 fold change [3]: inactive: 0 | log2 fold change (quisinostat): inactive: 0.009 | log2 fold change (tipifarnib): inactive: 0.049 | log2 fold change [4]: inactive: 0.041 | log2 fold change [5]: inactive: -0.027 | log2 fold change [6]: inactive: 0.033

SNRPE (UniProt P62304)
log2 fold change (lapatinib): inactive: -0.027 | log2 fold change (pictilisib): inactive: -0.033 | log2 fold change (crizotinib): inactive: -0.036 | log2 fold change [1]: inactive: -0.077 | log2 fold change (duvelisib): inactive: 0.039 | log2 fold change (gandotinib): inactive: 0.07 | log2 fold change (tozasertib): inactive: -0.006 | log2 fold change (doramapimod): inactive: -0.006 | log2 fold change (bafetinib): inactive: 0.014 | log2 fold change [2]: inactive: 0.1 | log2 fold change (nilotinib): inactive: 0.021 | log2 fold change [7]: inactive: -0.016 | log2 fold change (dasatinib): inactive: 0.037 | log2 fold change [8]: inactive: -0.017 | log2 fold change [3]: inactive: -0.003 | log2 fold change (quisinostat): inactive: -0.073 | log2 fold change (tipifarnib): inactive: 0.001 | log2 fold change [4]: inactive: 0.014 | log2 fold change [5]: inactive: 0.006 | log2 fold change [6]: inactive: -0.041

SMG5 (UniProt Q9UPR3)
log2 fold change (lapatinib): inactive: -0.038 | log2 fold change (pictilisib): inactive: 0.057 | log2 fold change (crizotinib): inactive: -0.007 | log2 fold change [1]: inactive: 0.01 | log2 fold change (duvelisib): inactive: -0.006 | log2 fold change (gandotinib): inactive: -0.003 | log2 fold change (tozasertib): inactive: 0.019 | log2 fold change (doramapimod): inactive: -0.131 | log2 fold change (bafetinib): inactive: -0.035 | log2 fold change [2]: inactive: -0.007 | log2 fold change (nilotinib): inactive: -0.058 | log2 fold change [7]: inactive: 0.034 | log2 fold change (dasatinib): inactive: 0.003 | log2 fold change [8]: inactive: -0.054 | log2 fold change [3]: inactive: 0.03 | log2 fold change (quisinostat): inactive: 0.013 | log2 fold change (tipifarnib): inactive: -0.115 | log2 fold change [4]: inactive: 0.097 | log2 fold change [5]: inactive: 0.048 | log2 fold change [6]: inactive: -0.027

SNX5 (UniProt Q9Y5X3)
log2 fold change (lapatinib): inactive: 0.014 | log2 fold change (pictilisib): inactive: 0.014 | log2 fold change (crizotinib): inactive: 0.034 | log2 fold change [1]: inactive: 0.061 | log2 fold change (duvelisib): inactive: -0.006 | log2 fold change (gandotinib): inactive: -0.009 | log2 fold change (tozasertib): inactive: 0 | log2 fold change (doramapimod): inactive: 0.02 | log2 fold change (bafetinib): inactive: -0.011 | log2 fold change [2]: inactive: -0.038 | log2 fold change (nilotinib): inactive: -0.012 | log2 fold change [7]: inactive: 0.007 | log2 fold change (dasatinib): inactive: -0.004 | log2 fold change [8]: inactive: 0.005 | log2 fold change [3]: inactive: 0.015 | log2 fold change (quisinostat): inactive: 0.041 | log2 fold change (tipifarnib): inactive: 0 | log2 fold change [4]: inactive: 0.005 | log2 fold change [5]: inactive: -0.004 | log2 fold change [6]: inactive: 0.033

SP4 (UniProt Q02446)
log2 fold change (lapatinib): inactive: -0.06 | log2 fold change (pictilisib): inactive: -0.098 | log2 fold change (crizotinib): inactive: -0.016 | log2 fold change [1]: inactive: -0.298 | log2 fold change (duvelisib): inactive: 0.058 | log2 fold change (gandotinib): inactive: 0.165 | log2 fold change (tozasertib): inactive: 0.152 | log2 fold change (doramapimod): inactive: -0.007 | log2 fold change (bafetinib): inactive: -0.1 | log2 fold change [2]: inactive: 0.115 | log2 fold change (dasatinib): inactive: -0.023 | log2 fold change [3]: inactive: -0.063 | log2 fold change (quisinostat): inactive: 0.018 | log2 fold change [4]: inactive: 0.052 | log2 fold change [5]: inactive: -0.034 | log2 fold change [6]: inactive: 0.166

— the supplement of paper PMC10849652
